We go through 3 substances from publication PMC7042714.

The chains behind the UniProt entries cited, without tags or fusion partners.
UniProt Q9BVL2: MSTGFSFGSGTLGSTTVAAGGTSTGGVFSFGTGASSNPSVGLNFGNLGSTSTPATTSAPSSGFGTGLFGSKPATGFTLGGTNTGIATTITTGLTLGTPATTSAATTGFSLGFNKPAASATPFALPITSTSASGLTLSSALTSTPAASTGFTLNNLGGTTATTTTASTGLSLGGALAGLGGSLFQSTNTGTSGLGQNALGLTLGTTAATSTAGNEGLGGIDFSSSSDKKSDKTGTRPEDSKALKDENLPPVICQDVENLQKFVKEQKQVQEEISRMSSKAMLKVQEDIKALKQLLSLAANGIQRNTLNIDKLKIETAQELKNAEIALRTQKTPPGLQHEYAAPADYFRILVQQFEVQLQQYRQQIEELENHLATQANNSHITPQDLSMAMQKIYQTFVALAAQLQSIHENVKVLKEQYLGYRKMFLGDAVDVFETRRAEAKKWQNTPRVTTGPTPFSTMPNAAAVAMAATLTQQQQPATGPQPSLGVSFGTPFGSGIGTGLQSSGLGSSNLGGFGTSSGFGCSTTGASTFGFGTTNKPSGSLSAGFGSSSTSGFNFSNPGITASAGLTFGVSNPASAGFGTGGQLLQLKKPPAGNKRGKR
UniProt P37198: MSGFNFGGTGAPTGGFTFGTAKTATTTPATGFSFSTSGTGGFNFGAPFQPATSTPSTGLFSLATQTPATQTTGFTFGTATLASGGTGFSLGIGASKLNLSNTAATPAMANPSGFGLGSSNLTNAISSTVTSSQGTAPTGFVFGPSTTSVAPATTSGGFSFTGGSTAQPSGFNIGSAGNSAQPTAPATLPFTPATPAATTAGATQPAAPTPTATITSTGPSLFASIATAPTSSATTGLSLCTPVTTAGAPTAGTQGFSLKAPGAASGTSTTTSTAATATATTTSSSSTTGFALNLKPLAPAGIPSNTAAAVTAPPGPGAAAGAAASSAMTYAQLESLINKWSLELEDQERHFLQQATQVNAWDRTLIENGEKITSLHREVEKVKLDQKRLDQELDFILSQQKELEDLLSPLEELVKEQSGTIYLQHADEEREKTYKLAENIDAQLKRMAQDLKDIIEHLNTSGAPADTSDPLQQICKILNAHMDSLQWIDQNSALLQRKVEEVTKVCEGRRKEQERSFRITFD
UniProt Q92621: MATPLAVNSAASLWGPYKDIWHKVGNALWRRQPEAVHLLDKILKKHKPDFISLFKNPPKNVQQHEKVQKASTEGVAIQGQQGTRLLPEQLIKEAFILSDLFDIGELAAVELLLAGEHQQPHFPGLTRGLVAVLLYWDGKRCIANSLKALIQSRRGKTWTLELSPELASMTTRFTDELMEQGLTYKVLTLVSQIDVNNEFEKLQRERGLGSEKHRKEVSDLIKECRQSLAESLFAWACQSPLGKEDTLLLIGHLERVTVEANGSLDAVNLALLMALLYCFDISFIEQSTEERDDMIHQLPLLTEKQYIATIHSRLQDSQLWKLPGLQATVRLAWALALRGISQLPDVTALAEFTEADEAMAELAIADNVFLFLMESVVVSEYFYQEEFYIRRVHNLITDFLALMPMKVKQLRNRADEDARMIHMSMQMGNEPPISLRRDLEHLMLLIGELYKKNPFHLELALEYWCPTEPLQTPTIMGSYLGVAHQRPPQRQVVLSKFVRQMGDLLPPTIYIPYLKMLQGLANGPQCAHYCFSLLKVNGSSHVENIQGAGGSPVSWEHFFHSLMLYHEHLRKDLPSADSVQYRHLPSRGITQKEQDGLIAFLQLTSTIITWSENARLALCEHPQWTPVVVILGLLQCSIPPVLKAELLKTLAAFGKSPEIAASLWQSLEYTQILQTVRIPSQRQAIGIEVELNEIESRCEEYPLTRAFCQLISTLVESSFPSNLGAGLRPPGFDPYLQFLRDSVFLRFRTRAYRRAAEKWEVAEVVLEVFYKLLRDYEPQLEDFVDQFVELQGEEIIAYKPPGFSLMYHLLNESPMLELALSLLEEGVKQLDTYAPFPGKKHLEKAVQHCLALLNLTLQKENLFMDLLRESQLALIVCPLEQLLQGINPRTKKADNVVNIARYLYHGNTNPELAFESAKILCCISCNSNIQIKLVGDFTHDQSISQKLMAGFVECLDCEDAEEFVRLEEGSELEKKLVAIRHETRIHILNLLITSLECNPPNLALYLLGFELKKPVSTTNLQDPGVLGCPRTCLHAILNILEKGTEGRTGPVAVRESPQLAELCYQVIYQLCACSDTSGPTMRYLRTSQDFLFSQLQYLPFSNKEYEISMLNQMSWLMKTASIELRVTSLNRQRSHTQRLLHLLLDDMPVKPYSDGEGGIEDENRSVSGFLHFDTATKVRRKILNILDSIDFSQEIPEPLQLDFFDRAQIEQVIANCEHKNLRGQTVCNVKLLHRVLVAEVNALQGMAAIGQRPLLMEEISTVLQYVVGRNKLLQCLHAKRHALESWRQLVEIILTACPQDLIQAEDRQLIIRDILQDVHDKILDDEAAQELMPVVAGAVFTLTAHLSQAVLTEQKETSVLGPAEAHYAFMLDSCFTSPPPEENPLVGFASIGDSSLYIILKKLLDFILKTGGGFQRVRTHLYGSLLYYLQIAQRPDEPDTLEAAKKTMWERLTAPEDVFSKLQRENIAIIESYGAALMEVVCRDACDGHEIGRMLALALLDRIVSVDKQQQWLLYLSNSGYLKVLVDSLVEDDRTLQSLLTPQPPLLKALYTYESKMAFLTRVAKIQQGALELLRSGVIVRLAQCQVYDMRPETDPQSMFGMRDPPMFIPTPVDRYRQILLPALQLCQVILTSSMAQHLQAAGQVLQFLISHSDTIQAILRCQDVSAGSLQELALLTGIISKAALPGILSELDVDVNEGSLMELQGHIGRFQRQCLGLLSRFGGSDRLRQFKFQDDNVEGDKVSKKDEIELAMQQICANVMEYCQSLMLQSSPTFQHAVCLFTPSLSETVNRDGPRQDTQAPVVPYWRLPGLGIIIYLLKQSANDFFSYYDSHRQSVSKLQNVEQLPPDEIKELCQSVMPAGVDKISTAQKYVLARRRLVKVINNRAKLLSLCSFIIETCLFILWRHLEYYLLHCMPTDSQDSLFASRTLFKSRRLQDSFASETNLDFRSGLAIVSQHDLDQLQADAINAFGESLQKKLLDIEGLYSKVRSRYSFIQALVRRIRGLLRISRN

For experiment [1], the target named is HA-Strep-tagged NUP58 (UniProt Q9BVL2). In words: pull-down; HA-Strep-NUP58 captured on StrepTactin Sepharose from lysate of HeLa Flp-In T-REx cells synchronized in interphase or mitosis; 25 mM Tris-HCl pH 7.6, 125 mM NaCl, 2 mM MgCl2, 1 mM DTT, 0.5% NP-40, 4°C; biotin elution; immunoblotting; HA-Strep-GFP as control bait. In general terms: In western blotting, separated proteins are transferred to a membrane and probed.

For experiment [2], the target named is T1, NUP93 (human (endogenous in HeLa)) (UniProt Q8N1F7).
T1 sequence: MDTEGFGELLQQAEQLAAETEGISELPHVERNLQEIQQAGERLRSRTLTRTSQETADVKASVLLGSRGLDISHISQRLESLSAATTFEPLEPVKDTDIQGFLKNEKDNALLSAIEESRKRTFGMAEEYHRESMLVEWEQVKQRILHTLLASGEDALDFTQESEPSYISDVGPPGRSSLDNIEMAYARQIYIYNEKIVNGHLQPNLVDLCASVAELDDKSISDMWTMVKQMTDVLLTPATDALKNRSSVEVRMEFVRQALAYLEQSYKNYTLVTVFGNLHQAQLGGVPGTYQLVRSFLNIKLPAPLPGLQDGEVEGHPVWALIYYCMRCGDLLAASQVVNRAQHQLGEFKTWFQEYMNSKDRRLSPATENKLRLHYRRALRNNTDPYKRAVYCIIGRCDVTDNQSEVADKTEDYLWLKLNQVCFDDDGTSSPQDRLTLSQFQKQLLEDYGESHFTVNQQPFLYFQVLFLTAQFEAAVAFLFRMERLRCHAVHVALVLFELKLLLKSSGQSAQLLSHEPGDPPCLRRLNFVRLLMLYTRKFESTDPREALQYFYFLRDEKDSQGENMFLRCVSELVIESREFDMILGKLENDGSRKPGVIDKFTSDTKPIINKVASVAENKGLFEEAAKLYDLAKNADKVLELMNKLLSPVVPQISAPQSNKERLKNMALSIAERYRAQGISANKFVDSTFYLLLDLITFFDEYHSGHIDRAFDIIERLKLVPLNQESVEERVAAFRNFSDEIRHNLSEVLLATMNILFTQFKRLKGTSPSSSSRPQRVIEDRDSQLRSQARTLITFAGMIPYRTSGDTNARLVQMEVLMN
Briefly: SEC; SEC-SWATH-MS: native extract (0.5% NP-40, freeze-thaw) of HeLa CCL2 cells synchronized in interphase (double thymidine block) or mitosis (thymidine, nocodazole, shake-off); SRT-C-SEC 500 column, 50 mM HEPES pH 7.5, 150 mM NaCl, 0-4°C; 65 fractions profiled by SWATH-MS, triplicates; association inferred from co-elution. On the technique in general: Size exclusion chromatography separates by hydrodynamic size, large species first.

No constants are given. Whether binding was seen depends on the method and setting. For some of these results: In cells and extracts the contact can be indirect. Some binding calls cover weakened binding; strength is not graded here.

Take NUP62 (from UniProt P37198 1-522): the binding result in experiment [1] and in experiment [2] was “binds” in each case.

For the substance NUP205 (from UniProt Q92621 1-2012), the binding result in experiment [2] is given as “binds”.

“NUP58 (endogenous) (from UniProt Q9BVL2 1-599)”: in experiment [2], the binding entry was “binds”.
